Where “and” joins values, the source holds several entries; their conditions need not be identical. Equal entries are not always repeated. Where two headings read alike, the source gives them in different places.
What was measured:
[1] = for recoveries: Example 8 (LSD) procedure applied to other drugs
[2] = urine
[3] = Example 4A, SDVB, urine, elution hexane:ethyl acetate (3:1)
[4] = Example 9A, SDVB, urine, wash KH2PO4, elution CH2Cl2:isopropanol (80:20), HPLC
[5] = Example 9C, SDVB, urine, elution CH2Cl2:isopropanol:NH4OH (78:20:2), HPLC
[6] = Example 9D, SDVB, urine, elution methanol, HPLC
[7] = Example 7, SDVB, urine, wash buffer, elution acetone:CHCl3 (1:1)
[8] = Example 10 general procedure, SDVB, urine, wash water or 5% aqueous methanol, elution ethyl acetate
[9] = Example 4B, SDVB, urine, wash buffer:acetonitrile (9:1), elution acetone:CHCl3 (1:1)

## C=CCC1(c2ccccc2)C(=O)NC(=O)NC1=O [Alphenal]
[1]; [3]
  Percent Recovery: 105%

## CN(C)CCCN1c2ccccc2CCc2ccccc21 [Imipramine]
[1]; [4]
  Percent Recovery: 95%
[1]; [5]
  Percent Recovery: 82%
[1]; [6]
  Percent Recovery: 72%
[1]; urine
  Percent Recovery: 84

## OCc1nnc2n1-c1ccc(Cl)cc1C(c1ccccc1)=NC2 [Hydroxyalprazolam]
[1]; [7]
  Percent Recovery: 100%
[1]; [8]
  Percent Recovery: 100%

## CCC(C)C1(CC)C(=O)NC(=O)NC1=O (stereo not shown) [Butabarbital]
[1]; [3]
  Percent Recovery: 91%
[1]; [9]
  Percent Recovery: 100%
[1]; urine
  Percent Recovery: 90

## CN(C)CCC=C1c2ccccc2CCc2ccccc21 [Amitriptyline]
[1]; [4]
  Percent Recovery: 100%
[1]; [5]
  Percent Recovery: 95%
[1]; [6]
  Percent Recovery: 77%
[1]; urine
  Percent Recovery: 92

## CNCCC=C1c2ccccc2COc2ccccc21 [Nordoxepin]
[1]; [4]
  Percent Recovery: 93%
[1]; [5]
  Percent Recovery: 91%
[1]; [6]
  Percent Recovery: 80%
[1]; urine
  Percent Recovery: 84

## CC(N)Cc1ccccc1 (stereo not shown) [Amphetamine]
[1]; urine
  Percent Recovery: 92 and 85

## C=CCC1(C(C)CCC)C(=O)NC(=O)NC1=O (stereo not shown) [Secobarbital]
[1]; [3]
  Percent Recovery: 83%
[1]; [9]
  Percent Recovery: 100%
[1]; urine
  Percent Recovery: 92

## CNCCC=C1c2ccccc2CCc2ccccc21 [Nortriptyline]
[1]; [4]
  Percent Recovery: 89%
[1]; [5]
  Percent Recovery: 93%
[1]; [6]
  Percent Recovery: 86%
[1]; urine
  Percent Recovery: 87

## COC(=O)[C@H]1[C@@H](OC(=O)c2ccccc2)C[C@@H]2CC[C@H]1N2C [Cocaine]
[2]; Examples 2A-B, for drug of group with highest contamination
  approximate minimum detection limit: 96 ng/mL

## COc1ccc2c3c1O[C@H]1[C@@H](O)C=C[C@H]4[C@@H](C2)N(C)CC[C@@]341 [Codeine]
[1]; Example 6A, SDVB, unhydrolyzed urine, elution acetone:CHCl3 (7:3)
  Percent Recovery: 85%
[1]; Example 6B, SDVB, unhydrolyzed urine, elution MeOH with 2% NH4OH
  Percent Recovery: 98%
[1]; Example 6C, SDVB, unhydrolyzed urine, elution acetone:CHCl3 (1:1)
  Percent Recovery: 95%
[1]; Example 6D, SDVB, unhydrolyzed urine, elution 2% NH4OH in acetone:CHCl3 (7:3)
  Percent Recovery: 77%
[1]; Example 6E method omitting the hydrolysis step, free opiates
  recovery: 90%
[1]; Example 6E, SDVB, hydrolyzed urine, pH 6, elution n-BuCl:ethyl acetate (1:1) with 1% NH4OH
  Percent Recovery: 82%
[1]; Example 6F, SDVB, hydrolyzed urine, pH 8.4
  Percent Recovery: 92%
[1]; urine
  Percent Recovery: 85

## CNCCCN1c2ccccc2CCc2ccccc21 [Desipramine]
[1]; [4]
  Percent Recovery: 98%
[1]; [5]
  Percent Recovery: 105%
[1]; [6]
  Percent Recovery: 85%
[1]; urine
  Percent Recovery: 104

## CCCCCc1cc(O)c2c(c1)OC(C)(C)[C@@H]1CCC(C(=O)O)=C[C@@H]21 [THC-COOH]
[1]; Example 1, SDVB, urine, elution ethyl acetate:isopropanol (85:15)
  Percent Recovery: 95%
[1]
  recoveries: 91%
[1]; urine
  Percent Recovery: 100
[2]; Example 1
  approximate minimum detection limit: 8 ng/mL

## CN1[C@H]2CC[C@@H]1[C@@H](C(=O)O)[C@@H](OC(=O)c1ccccc1)C2 [Benzoylecgonine]
[1]; Example 2A, SDVB, urine, elution acetonitrile:n-butylchloride (3:7)
  Percent Recovery: 100%
[1]; Example 2B, SDVB, urine, elution acetone:CHCl3 (1:1)
  Percent Recovery: 99%
[1]
  recoveries: 100%
[1]; urine
  Percent Recovery: 74

## CN[C@@H](C)Cc1ccccc1 [Methamphetamine]
[1]; urine
  Percent Recovery: 96 and 100

## CCC1(c2ccccc2)C(=O)NC(=O)NC1=O [Phenobarbital]
[1]; [3]
  Percent Recovery: 91%

## O=C1Nc2ccc(Cl)cc2C(c2ccccc2)=NC1O (stereo not shown) [Oxazepam]
[1]; [7]
  Percent Recovery: 41%
[1]; urine
  Percent Recovery: 85

## CCN(CC)C(=O)[C@@H]1C=C2c3cccc4[nH]cc(c34)C[C@H]2N(C)C1 [LSD, lysergic acid diethylamide]
[1]; Example 8, SDVB, urine, wash buffer:acetonitrile (9:1), elution acetone:CHCl3 (1:1)
  Percent Recovery: 90%
[1]; urine
  Percent Recovery: 100

## CCC1(CCC(C)C)C(=O)NC(=O)NC1=O [Amobarbital]
[1]; urine
  Percent Recovery: 93 and 90

## OCc1nnc2n1-c1ccc(Cl)cc1C(c1ccccc1Cl)=NC2 [Hydroxytriazolam]
[1]; [7]
  Percent Recovery: 100%
[1]; [8]
  Percent Recovery: 100%
[2]; Example 7, for drug of group with highest contamination
  approximate minimum detection limit: 12 ng/mL
[2]; Example 10, for drug of group with highest contamination
  approximate minimum detection limit: 15 ng/mL

## CN(C)CCC=C1c2ccccc2COc2ccccc21 [Doxepin]
[1]; [4]
  Percent Recovery: 94%
[1]; [5]
  Percent Recovery: 80%
[1]; [6]
  Percent Recovery: 69%
[1]; urine
  Percent Recovery: 85

## CCCC(C)C1(CC)C(=O)NC(=O)NC1=O (stereo not shown) [Pentobarbital]
[1]; [3]
  Percent Recovery: 93%
[1]; [9]
  Percent Recovery: 87%
[1]; urine
  Percent Recovery: 73

## CNC1=Nc2ccc(Cl)cc2C(c2ccccc2)=[N+]([O-])C1 [Chlorodiazepoxide]
[1]; [7]
  Percent Recovery: 100%
[1]; urine
  Percent Recovery: 100

Reference: patent publication US6057161A (priority 1997, dated 2000)
